Consider 2 substances from publication doi:10.1101/589473.

Sequences of proteins named here, by UniProt entry; tags and fusion partners are left off.
UniProt Q96GD4: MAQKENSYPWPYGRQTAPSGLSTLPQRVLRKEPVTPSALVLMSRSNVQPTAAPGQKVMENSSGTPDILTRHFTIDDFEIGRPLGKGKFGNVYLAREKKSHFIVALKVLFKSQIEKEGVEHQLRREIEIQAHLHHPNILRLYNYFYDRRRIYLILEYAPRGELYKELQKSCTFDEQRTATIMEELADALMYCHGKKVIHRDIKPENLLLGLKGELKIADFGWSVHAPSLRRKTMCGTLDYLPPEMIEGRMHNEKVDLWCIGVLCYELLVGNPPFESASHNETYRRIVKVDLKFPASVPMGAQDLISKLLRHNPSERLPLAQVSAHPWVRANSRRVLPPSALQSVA
UniProt Q92993: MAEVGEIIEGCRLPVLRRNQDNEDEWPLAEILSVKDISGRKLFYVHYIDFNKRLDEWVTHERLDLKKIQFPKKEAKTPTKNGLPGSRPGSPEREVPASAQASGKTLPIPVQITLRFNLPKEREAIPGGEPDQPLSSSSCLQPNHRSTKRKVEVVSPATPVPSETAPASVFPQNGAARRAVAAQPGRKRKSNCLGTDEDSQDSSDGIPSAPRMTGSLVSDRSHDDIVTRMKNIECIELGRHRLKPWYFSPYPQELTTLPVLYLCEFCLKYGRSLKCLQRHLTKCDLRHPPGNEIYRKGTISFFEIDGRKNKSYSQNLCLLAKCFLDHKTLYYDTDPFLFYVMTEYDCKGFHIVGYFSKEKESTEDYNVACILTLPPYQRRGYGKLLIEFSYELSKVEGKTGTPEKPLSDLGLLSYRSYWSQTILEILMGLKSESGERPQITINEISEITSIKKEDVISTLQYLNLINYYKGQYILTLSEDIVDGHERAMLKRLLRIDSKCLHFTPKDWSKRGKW

Results are given in words; binding and its absence hold for the method and conditions named. In cells and extracts the contact can be indirect. Some binding calls cover weakened binding; strength is not graded here.

The target of assay [1] is Flag-AurkB (Aurora kinase B) (human) (UniProt Q96GD4). Nature of the assay: co-IP.
Assay [2] has as its target 2N3T-Tip60 (HA-Tip60) (human) (UniProt Q92993). Nature of the assay: co-IP.

For “2N3T-Tip60 (HA-Tip60) (from UniProt Q92993 1-513) (enzyme)”, in assay [1], the binding entry is “binds”. For the substance “Flag-AurkB (Aurora kinase B) (from UniProt Q96GD4 1-344) (enzyme)”, in assay [2], the binding entry is reported as “binds”.
